The values are deposited in ChEMBL (CHEMBL3988442, “University of Dundee, Small-Polar-MMV Screening Library” (2021)).

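Whole-cell assay for inhibitors of Mycobacterium tuberculosis growth, labelled Cornell in the record; the read-out is not stated. The concentration is filed as 10 mM, unlikely as a test dose, so the dose is not known. The record gives no direction; compounds strong in two other growth screens of this library score well above the rest, so higher reads as stronger inhibition. About 53,000 compounds were tested under these conditions; 1.7% (about 900) showed 50% or more at least once.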

Results are given as percent effect.
How 0% and 100% were set is not recorded. Most values in the screen are low, and negative values occur.
Compounds were drawn at random from those tested, without regard to their results.

SMILES,percent effect
CN(C)C(=O)C1(C)CN(Cc2cn(C)c3ccc(F)cc23)CCO1 (stereo unspecified),20.08%
CCc1nc(NS(=O)(=O)c2ccc(C)cc2Cl)no1,11.71%
CC(C)CNC(=O)c1ccc2c(=O)n(-c3ccccc3)cnc2c1,8.949%
COc1cccc(C(c2c(C)n[nH]c2O)c2c(C)n[nH]c2O)c1OC,22.68%
NC(=O)Cn1c(CO)cnc1SCC(=O)NCc1ccccc1,-12.71%
CCN1CCC(CNS(=O)(=O)N2CCc3ccccc3C2)C1 (stereo unspecified),3.537%
O=C(NC[C@H]1OC[C@@H](NC2CCOCC2)[C@@H]1O)C1CCCC1,-3.497%
CN1CCN(C(=O)Cn2nc(C(F)(F)F)c(Br)c2C2CC2)CC1,16.5%
Cc1csc(C(C)(C)NCCOc2ccc(CC#N)cc2)n1,-14.48%
[H][C@@]12CNC[C@]1([H])N(C(=O)c1ccoc1)CCO2,1.971%
O=C(NC1CCCN(c2ccc(OC(F)F)cc2)C1)c1c[nH]nn1 (stereo unspecified),1.349%
COCCOc1ccccc1C(=O)N(C)Cc1ncc(C)c(OC)c1C,20.08%
Fc1ccc(CNCC2Cn3nncc3CO2)cc1.O=C(O)C(F)(F)F (stereo unspecified),-17.84%
O=C(c1ccc2ncsc2c1)N1CCC(C(=O)O)(n2cccn2)CC1,-28.93%
COCCC(=O)N1CCC2(COCc3cnc(N(C)C)nc32)C1 (stereo unspecified),-39.05%
CCc1noc(CN(C)CCC(=O)Nc2ccccc2C#N)n1,1.197%
CCc1nccn1C1CCCN(C(=O)c2ccc3c(c2)OCO3)C1 (stereo unspecified),18.55%
O=C(Nc1cnn(C2CCOCC2)c1)c1ccc2c(c1)OCO2,-21.3%
Cc1ccc(N2CCCC(NC(=O)CCc3ccccn3)C2=O)cc1 (stereo unspecified),5.333%
Cl.Nc1nc(Nc2ccccc2)cc(N2CCNCC2)n1,-5.146%
CCn1nc(C)c(CCn2ccnc2-c2cc3n(n2)CCCNC3)c1C,25.32%
CCc1noc(CNc2c(F)cccc2-n2cccn2)n1,-17.43%
Cc1cc(C)n(CC2CN(CC(=O)Nc3nncs3)CCO2)n1 (stereo unspecified),13%
CC(C)NC(=O)CC1COC2(CCN(Cc3ccco3)CC2)C1 (stereo unspecified),-41.75%
COCCN1CCOCC12CCN(c1nccs1)CC2.O=C(O)C(F)(F)F,-32.56%
CNC(=O)CC1CC2(CCN(CC3CC3)CC2)Oc2ccccc21.O=C(O)C(F)(F)F (stereo unspecified),23.41%
Cc1ccc2oc([C@H]3CCN(Cc4ccccc4)C3)nc2c1,16.6%
O=C(O)C(F)(F)F.[H][C@@]12CN(C(=O)c3ccoc3)C[C@]1([H])OCCN2C(C)C,12.83%
O=C(COC1CCCC1)NCCc1noc(-c2ccccn2)n1,11.25%
O=C(O)C(F)(F)F.O=C1COC2(CCN(Cc3cccs3)CC2)CN1c1cncnc1,13.06%
CCCC(=O)Nc1cccc([C@H]2C[C@@H](NC(C)=O)CCO2)c1,41.92%
c1cc(-c2nnc([C@H]3CCNC3)o2)ccn1,-3.988%
CC(CN1CCOCC1)NC(=O)Nc1cccnc1-n1cccn1 (stereo unspecified),-27.4%
CN1CCCC1c1cncc(C(=O)NCC2CC2)n1 (stereo unspecified),3.96%
O=C(O)C(F)(F)F.O=C(O)C(F)(F)F.[H][C@@]12CCN(Cc3nc(C)cs3)[C@]1([H])CC[C@@H](C(=O)Nc1cccnc1)O2,2.304%
O=C(NCCCO)NCCc1cc(F)ccc1F,-34.6%
Cc1cc(C(F)(F)F)cc(=O)n1CCCn1cnnn1,-2.641%
Cn1cnc2c1CCN(Cc1ccc(C(=O)N3CCCC3)cc1)C2,10.77%
O=C(CNC(=O)c1ccc2c(c1)CCC2)NCCNc1ncccn1,-50.46%
Cc1cccnc1CN(C)C(C(=O)O)c1ccc(-n2cccn2)cc1 (stereo unspecified),103.2%
O=C1CN([C@@H]2CC[C@@H](NS(=O)(=O)c3ccc(F)cc3)[C@H]2O)CCN1,42.43%
N#Cc1cc(S(N)(=O)=O)ccc1NC1CCc2c(F)cccc21 (stereo unspecified),5.007%
O=C1NC2(CCN(C(=O)Cc3ccsc3)CC2)CC1c1ccncc1 (stereo unspecified),7.625%
CNc1ccc(C2CN(c3cc(C)nc(N)n3)CCO2)nc1 (stereo unspecified),24.16%
CCS(=O)(=O)N1Cc2ccccc2CC1C(=O)OCc1cc(C)no1 (stereo unspecified),2.546%
CN(C)Cc1cc(C2CCN(C(=O)C3CCCNC3)CC2)nn1C.Cl (stereo unspecified),38.07%
[H][C@@]12CCN(C(=O)c3cnccn3)C[C@@]1([H])O[C@H](c1ccncn1)C2,4.793%
CC(O)CN(C)C(=O)CCNC(=O)OC(C)(C)C (stereo unspecified),-9.767%
CN(Cc1ccccn1)C(=O)c1nn(C)c2c1CCN(CC1CC1)C2.O=C(O)C(F)(F)F.O=C(O)C(F)(F)F.O=C(O)C(F)(F)F,34.13%
COCCCSc1ccc(NC(=O)Nc2cn[nH]c2)cc1,-46.9%
Cc1noc(C)c1CN1CCN(C(=O)C(C(C)C)n2cncn2)CC1 (stereo unspecified),-13.18%
Cc1ccc(-c2nc(CC(=O)NCC(C)N3CCOCC3)cs2)o1 (stereo unspecified),28.77%
Cc1nc(CN2CCN(c3ccc4nncn4n3)C(C)C2)oc1C (stereo unspecified),-30.38%
O=C(CN1C=Nc2ccccc2S1(=O)=O)NCCCc1ccccc1,-12.5%
Cc1cccc(CS(=O)(=O)c2nnc([C@@H](N)Cc3ccccc3)o2)c1.Cl,-11.8%
CN(C)CCN1C(=O)CCCC12CCCN(C(=O)c1cc[nH]n1)C2.O=C(O)C(F)(F)F (stereo unspecified),10.7%
COc1ccc(OC)c(C(O)CNC(=O)Nc2ccc(F)cc2F)c1 (stereo unspecified),-12.63%
Cc1cc(C)c2[nH]c(=O)c(CN3CCCC4(C3)CN(C)C(=O)O4)cc2c1 (stereo unspecified),65.13%
O=C(NCC(c1cccs1)N1CCOCC1)c1ccc(F)cc1Cl (stereo unspecified),-19.18%
COc1ccccc1C(=O)N1CCOC2(CCCN(C(C)=O)C2)C1 (stereo unspecified),23.26%
O=C1NC2(CCN(C(=O)c3ccc(Cl)cn3)CC2)CC1c1ccccc1 (stereo unspecified),-6.455%
CCN(CC1CCOC1)C(=O)c1cc(F)ccc1N1CCN(C)CC1 (stereo unspecified),-35.35%
NC(=O)C1=NN2C(=NS(=O)(=O)c3ccccc32)N1,18.26%
O=C(NS(=O)(=O)c1ccccc1C(F)(F)F)c1cccc2c1OCCO2,30.51%
CN(C)CCN1CC(C(=O)NCc2cccc(-n3cccn3)c2)CC1=O (stereo unspecified),-3.046%
O=C(NCC1CC2(CO1)CN(c1ncccn1)C2)C1CCC1 (stereo unspecified),6.962%
Cn1ncc2c(N3CC[C@H](O)C3)nc(-c3ccncc3)nc21,-49.91%
Cc1nc(Cn2cc(I)cc(C)c2=O)oc1C,28.12%
[H][C@]12CC[C@]([H])(CN(Cc3cc(-c4ccccc4)no3)C1)N(CC1CC1)C2,34.91%
CC(=O)Nc1ccc(C(=O)N(C)Cc2cccc(F)c2)s1,7.729%
CCOC1COC2(CCN(Cc3ccc(C)cc3)CC2)C1.O=C(O)C(F)(F)F (stereo unspecified),21.32%
CCOCCOc1ccccc1C(=O)N1C[C@H](C2CC2)[C@@H](N)C1,-12.62%
Cc1cnn(CC2CCCCN2CC(=O)NCc2ccccn2)c1 (stereo unspecified),5.642%
CC(C)(C)C(=O)N1CCCC1(C(=O)N1CCCC1)c1cnccn1 (stereo unspecified),-7.935%
O=C(O)C(F)(F)F.O=C(O)C(F)(F)F.[H][C@@]12COC[C@]1(COc1cccnc1)CN(c1cc(OC)ncn1)C2,-11.05%
CSCC[C@H](NC(=O)Cn1ccc2c(Br)cccc21)C(=O)O,5.043%
CC(C(=O)NCc1ccc(N2CCCCC2)nc1)n1cncn1 (stereo unspecified),-19.96%
N#Cc1ccnc(N2CCN(C(=O)NC3CCS(=O)(=O)C3)CC2)c1 (stereo unspecified),11.76%
Fc1ccc(CN2CCC3(CCN(Cc4nccs4)CC3)C2)cc1.O=C(O)C(F)(F)F.O=C(O)C(F)(F)F,10.48%
Cc1cc(C)n(C2CCCN(C(=O)c3ccc(N(C)C)nn3)C2)n1 (stereo unspecified),17.55%
c1cc(N2CCCC2c2cnccn2)ncn1 (stereo unspecified),-7.432%
[H][C@]12CC[C@]([H])(CN(c3ncccn3)C1)N(Cc1ccsc1)C2,3.857%
O=C(CCc1ccco1)N1CCC(Oc2ccccc2)(C(=O)O)CC1,-6.455%
O=C(Cn1c(=O)oc2ccccc21)NCC1(O)CCc2ccccc21 (stereo unspecified),2.597%
c1cncc(COCC2CN(Cc3ccco3)Cc3nccn3C2)c1 (stereo unspecified),15.6%
[H][C@@]12CCN(C(=O)CC(C)(C)C)C[C@]1([H])CCN(CCc1c[nH]cn1)C(=O)C2,12.45%
CC(C)Cc1cc(NC(=O)c2ccccc2F)n(C)n1,11%
Cc1cc(C)n(-c2ccc(C(=O)NCc3cncn3CC(C)C)cc2)n1,-10.46%
Cc1cnc(C(=O)Nc2cc(F)ccc2OCC2CCCO2)cn1 (stereo unspecified),-20.57%
CN1C(=O)C2(CCN(CC3CC3)CC2)c2ccccc21.O=C(O)C(F)(F)F,-19.06%
[H][C@@]12CN(c3ncc(C)cn3)C[C@]1(C(=O)NC)CCCN2c1ncccn1,-11.97%